Data on 1 substance can be found in patent US10160812B2 (MedImmune, LLC, priority 2014, dated 2018).

A short description of this data set: Fmoc solid-phase peptide synthesis; 2-Chlorotrityl chloride resin. To be noted: whole synthesis, scale 0.32 mmol.

For “(2S,4R)-4-(2-((1R,3R)-1-acetoxy-3-((2S,3S)-2-((2R,4R)-1,4-dimethylpiperidine-2-carboxamido)-N-ethyl-3-methylpentanamido)-4-methylpentyl)thiazole-4-carboxamido)-5-(4-((S)-6-amino-2-(6-(2,5-dioxo-2,5-dihydro-1H-pyrrol-1-yl)hexanamido)hexanamido)phenyl)-2-methylpentanoic acid”, the isolated mass was found to be 0.095 g and the isolated yield stood at 22.48%.
